# According to PubChem BioAssay AID1487 (National Center for Advancing Translational Sciences (NCATS), 2009):
# Some of the results follow. Shown are side measurements of this screen, not its main read-out; they come without a call. Most of these compounds were active or inconclusive in the main read-out, so they are no random draw. Words in brackets tell the shape of the fitted curve; partial curves, single points and poor fits give uncertain potencies.
# Experiment: qHTS Assay for Modulators of Lamin A Splicing
# Conditions: HeLa LMNA splicing GFP/RFP minigene ratio, 48 h
# Summary of the method: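 S3 HeLa cells stably expressing lamin A-EGFP splicing minigene plus DsRed2, 600 cells/well, 48 h compound exposure at 37C. Laser-scanning cytometry; analysed as GFP (500-530 nm)/RFP (575-640 nm) total intensity ratio; 0.5% DMSO vehicle.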
# [1] = measured here: RFP viability control channel
# [2] = measured here: GFP splicing reporter channel
SMILES,AC50 [1],AC50 [2]
COc1ccc(C)cc1NC(=O)C(=O)NCc1ccncc1,"31.6 µM [rising, single point]",
O=c1[nH]c(CSc2nc3ccccc3[nH]2)nc2c1cnn2-c1ccccc1,"10 µM [rising, partial curve]",
CCCCNC(=O)CC1S/C(=N/N=C/c2ccc(OC)cc2)NC1=O (stereo not given),,"0.251 µM [rising, full curve, poor fit]"
CCn1nnc(NC(=O)c2ccc(-c3ccc(Cl)cc3)o2)n1,"0.562 µM [rising, full curve, poor fit]",
CCN1CCN(CCCN(Cc2ccco2)C(=S)Nc2ccc(Cl)cc2)CC1,"0.00501 µM [falling, full curve, poor fit]","0.00891 µM [falling, full curve, poor fit]"
CC(C)c1ccccc1OCCNC(=O)c1cccnc1,"17.8 µM [rising, single point]",
O=C(c1n[nH]c(=O)c2ccccc12)N1CCN(c2ccccc2)CC1,"4.47 µM [falling, full curve, poor fit]","5.62 µM [falling, full curve, poor fit]"
Cc1ccc(-n2cnc3cc(C(=O)NCc4ccccc4Cl)ccc32)c(C)c1,"0.00562 µM [falling, full curve, poor fit]","7.08 µM [falling, full curve]"
Cc1cccc(Cn2cccc2CNS(=O)(=O)c2ccc(C)c(C)c2)c1,"2.24 µM [falling, partial curve]","2.51 µM [falling, partial curve]"
CCN(CC)CCN1C(=O)c2oc3ccccc3c(=O)c2C1c1ccc(C)cc1 (stereo not given),"31.6 µM [rising, single point]",
Cc1cccc(NS(=O)(=O)c2ccc3nc(-c4ccccc4)[nH]c3c2)c1C,"17.8 µM [rising, partial curve, poor fit]",
COc1ccc(-n2c(=O)c3ccccc3n(CC(=O)NCc3ccco3)c2=O)cc1,"39.8 µM [falling, partial curve, poor fit]","0.708 µM [falling, single point]"
O=C1CC(C(=O)NCc2ccccc2)C2(CCCC2)O1 (stereo not given),"5.01 µM [falling, full curve, poor fit]",
CCOC(=O)c1ccccc1NS(=O)(=O)c1ccc(S(=O)(=O)N2CCCC2)cc1,"20 µM [rising, single point]",
CC1CCN(C(=O)/C(=C\c2cccs2)NC(=O)c2ccccc2)CC1,"10 µM [falling, partial curve]","8.91 µM [falling, single point]"
COc1ccc(C(=O)C(CN2CCOCC2)c2ccccc2)cc1 (stereo not given),"22.4 µM [falling, partial curve]","3.16 µM [falling, full curve]"
O=C(/C(=N/N=C/c1ccc(O)c(O)c1O)c1ccccc1)c1ccccc1,,"35.5 µM [falling, single point]"
O=C(NCCCn1ccnc1)C(=O)NCC1OCCN1S(=O)(=O)c1ccc(Cl)cc1 (stereo not given),"7.94 µM [rising, single point]",
COc1ccc(C)cc1-n1nnnc1SCC(=O)c1ccc2c(c1)OCCO2,"14.1 µM [rising, partial curve]","11.2 µM [rising, partial curve]"
COc1ccc(NC(=S)N(CCN2CCOCC2)Cc2cc3cc4c(cc3[nH]c2=O)OCCO4)cc1,"0.0251 µM [falling, full curve, poor fit]","0.158 µM [falling, full curve, poor fit]"
Cc1ccsc1C(=O)OCC(=O)N1CCc2ccccc2C1,"2 µM [falling, partial curve, poor fit]",
C=CCN1CCc2cc(O)c(O)cc2C(c2ccccc2)C1 (stereo not given),,"35.5 µM [falling, single point]"
CCCOc1ccc(-c2nc[nH]c2[N+](=O)[O-])cc1,,"0.447 µM [falling, partial curve]"
CCC1CCCCN1C(=O)c1sc2nc(C)nc(N(CC)CC)c2c1C (stereo not given),"5.01 µM [falling, partial curve]","1.26 µM [falling, partial curve]"
Cc1cc(C)c2c(-n3cccc3)c(C(=O)O)sc2n1,"10 µM [rising, partial curve, poor fit]","12.6 µM [rising, single point]"
Nc1ncnc2nc[nH]c12,"2.51 µM [falling, partial curve, poor fit]","2.24 µM [falling, partial curve, poor fit]"
COc1ccc(NC(=O)C2CCN(S(=O)(=O)c3ccc(Br)s3)CC2)cc1OC,"15.8 µM [rising, single point]","14.1 µM [rising, partial curve, poor fit]"
Cc1cc(=O)[nH]c(NCCO)n1,,"0.0282 µM [falling, full curve, poor fit]"

# A draw from above in order of molecular weight, rising.
SMILES,AC50 [1],AC50 [2]
Nc1ncnc2nc[nH]c12,"2.51 µM [falling, partial curve, poor fit]","2.24 µM [falling, partial curve, poor fit]"
CCCOc1ccc(-c2nc[nH]c2[N+](=O)[O-])cc1,,"0.447 µM [falling, partial curve]"
C=CCN1CCc2cc(O)c(O)cc2C(c2ccccc2)C1 (stereo not given),,"35.5 µM [falling, single point]"
Cc1ccsc1C(=O)OCC(=O)N1CCc2ccccc2C1,"2 µM [falling, partial curve, poor fit]",
CCn1nnc(NC(=O)c2ccc(-c3ccc(Cl)cc3)o2)n1,"0.562 µM [rising, full curve, poor fit]",
O=C(/C(=N/N=C/c1ccc(O)c(O)c1O)c1ccccc1)c1ccccc1,,"35.5 µM [falling, single point]"
CCCCNC(=O)CC1S/C(=N/N=C/c2ccc(OC)cc2)NC1=O (stereo not given),,"0.251 µM [rising, full curve, poor fit]"
Cc1cccc(Cn2cccc2CNS(=O)(=O)c2ccc(C)c(C)c2)c1,"2.24 µM [falling, partial curve]","2.51 µM [falling, partial curve]"
Cc1ccc(-n2cnc3cc(C(=O)NCc4ccccc4Cl)ccc32)c(C)c1,"0.00562 µM [falling, full curve, poor fit]","7.08 µM [falling, full curve]"
COc1ccc(-n2c(=O)c3ccccc3n(CC(=O)NCc3ccco3)c2=O)cc1,"39.8 µM [falling, partial curve, poor fit]","0.708 µM [falling, single point]"
CCN1CCN(CCCN(Cc2ccco2)C(=S)Nc2ccc(Cl)cc2)CC1,"0.00501 µM [falling, full curve, poor fit]","0.00891 µM [falling, full curve, poor fit]"
O=C(NCCCn1ccnc1)C(=O)NCC1OCCN1S(=O)(=O)c1ccc(Cl)cc1 (stereo not given),"7.94 µM [rising, single point]",
COc1ccc(NC(=O)C2CCN(S(=O)(=O)c3ccc(Br)s3)CC2)cc1OC,"15.8 µM [rising, single point]","14.1 µM [rising, partial curve, poor fit]"
COc1ccc(NC(=S)N(CCN2CCOCC2)Cc2cc3cc4c(cc3[nH]c2=O)OCCO4)cc1,"0.0251 µM [falling, full curve, poor fit]","0.158 µM [falling, full curve, poor fit]"

# Continuation.

SMILES,AC50 [1],AC50 [2]
S=c1[nH]nc(COc2ccccc2)n1/N=C/c1ccco1,"0.178 µM [rising, full curve, poor fit]",
O=c1c2cnn(-c3ccccc3)c2nnn1Cc1ccccn1,"35.5 µM [rising, single point]",
CSc1ccc(CNC(=O)CCc2c(C)nn(-c3ccc(N4CCCC4)nn3)c2C)cc1,"0.251 µM [falling, full curve, poor fit]","0.224 µM [falling, full curve, poor fit]"
O=c1[nH]c(Cc2cccs2)nc2scc(-c3ccc(Cl)cc3)c12,,"2.51 µM [rising, partial curve]"
CCOC(=O)c1c(NC(=O)CSc2nnc(-c3c[nH]c4ccccc34)n2C)sc2c1CCCC2,"20 µM [rising, partial curve]",
Cc1cc(C)c2nc(NC(=O)c3ccc(S(=O)(=O)N4CCC(C)CC4)cc3)sc2c1,"10 µM [falling, partial curve]",
N#CC1=C2SCC(O)(c3ccccc3)N2C(=O)CC1c1cccs1 (stereo not given),"7.94 µM [rising, partial curve]","8.91 µM [rising, partial curve, poor fit]"
O=C(Nc1ccccc1)Nc1nc(-c2ccc(F)cc2)cs1,"31.6 µM [rising, single point]",
Cc1ccc(-c2noc(C3CCN(C(=O)Nc4ccc(C#N)cc4)CC3)n2)o1,"20 µM [rising, single point]",
S=C(NCCOCCOCCNC(=S)Nc1ccccc1)Nc1ccccc1,"35.5 µM [falling, single point]","11.2 µM [falling, single point]"
CCc1ccc2nc(SCC(=O)N3CC(=O)Nc4ccccc43)c(C#N)cc2c1,"17.8 µM [rising, partial curve, poor fit]",
COc1ccc(C(=O)Nc2ccccc2-c2nc3ccccc3s2)c(OC)c1,"2 µM [falling, full curve]","1.58 µM [falling, full curve, poor fit]"
Cc1ccc2nc(C3CCCN(C(=S)Nc4cccc(C)c4C)C3)[nH]c2c1 (stereo not given),"0.0282 µM [falling, partial curve]",
COc1ccc(Nc2cc(C(=O)NCCCN(C)Cc3ccccc3)c3ccccc3n2)cc1,,"5.62 µM [falling, single point]"
CCN(CC)C(=O)N1CCC(NC(=O)c2ccc(C(C)(C)C)cc2)CC1,,"15.8 µM [rising, single point]"
C=CCNC(=O)c1ccc(C2SCC(=O)N2Cc2ccccc2)cc1 (stereo not given),"0.0501 µM [falling, full curve, poor fit]",
O=C(CCl)N(C/C=C/c1ccccc1)c1ccc2c(c1)OCCO2,"3.98 µM [falling, single point]",
COc1ccc(-c2nc(C#N)c(NCc3ccc(F)cc3)o2)cc1OC,"20 µM [rising, single point]",
CC(=O)c1ccc(NC(=O)CSc2nc(C3CCCC3)nc3c2c(=O)n(C)c(=O)n3C)cc1,"1.58 µM [rising, partial curve]",
CCN(CC)S(=O)(=O)c1ccc(OC)c(NC(=O)CSc2cc(Cl)ccc2Cl)c1,"15.8 µM [rising, single point]","11.2 µM [rising, single point]"
CCOc1ccc(NC(=O)c2nsc(Cl)c2Cl)cc1,"3.16 µM [falling, full curve, poor fit]",
Cc1ccc(N2C(=O)CN(Cc3sccc3C)C2=S)cc1C,"31.6 µM [rising, single point]",
NS(=O)(=O)c1cc2c(cc1Cl)NC(C1C[C@H]3C=C[C@@H]1C3)NS2(=O)=O (stereo not given in full),"6.31 µM [falling, partial curve]","22.4 µM [rising, single point]"
COc1cccc(CC2(CO)CCCN(Cc3cc(F)ccc3-n3cccn3)C2)c1 (stereo not given),"12.6 µM [falling, partial curve]","28.2 µM [falling, partial curve]"
COc1nc(Cl)cn(-c2ccc(C)cc2)c1=O,"0.0126 µM [falling, full curve, poor fit]",
O=C(Nc1cc(=O)c2ccccc2o1)N1CCOCC1,"22.4 µM [rising, single point]",
C=CC1=C(C)/C(=C/c2[nH]c(Cc3[nH]c(/C=C4\NC(=O)C(C)=C4C=C)c(C)c3CCC(=O)O)c(CCC(=O)O)c2C)NC1=O,"17.8 µM [rising, single point]",
